Test results as given in PubChem BioAssay AID587 (National Center for Advancing Translational Sciences (NCATS), 2007).
In all, about 59,000 compounds went through this assay and about 35 (0.06%) were called active. This list was built around the results that the source calls inconclusive (neither active nor inactive); the mix of calls is not that of the screen. Cut-off read from the data, not from the text of the source: active = max dye-equivalent concentration above about 10 nM; inconclusive = between about 1.1 nM and that limit; inactive = weaker than that.

Experiment: qHTS Assay for Spectroscopic Profiling in Texas Red Spectral Region
Details: Compound fluorescence, Texas Red channel, 547/618 nm; hits give high values
In short: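 Texas Red-region profiling: compounds in 100 mM Tris pH 8.0 were read at 547/618 nm after 15 min at room temperature. Intensities were normalized against a six-point Texas Red standard series to give dye-equivalent concentration.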
With `N#CC(=C1SC=CS1)c1nc(-c2ccccc2)cs1` the max dye-equivalent concentration was inconclusive: 1.1 nM. With `CCN(CC)C(=O)CSCC(=O)Nc1ccccc1` the max dye-equivalent concentration was inconclusive: 1.5 nM. With `O=C(Nc1nc2ccccc2[nH]1)c1ccccc1F` the max dye-equivalent concentration was inconclusive: 1.7 nM. With `CCc1c(C)c(C#N)c2nc3ccccc3n2c1-n1nc(C)cc1C` the max dye-equivalent concentration was “inactive”. In the case of `Cn1nnnc1SCC(=O)N1c2ccccc2CCc2ccccc21`, the max dye-equivalent concentration is reported as inconclusive: 1.2 nM. With `COc1ccc(N2C(=O)CC(N3CCN(C4CCc5ccccc5C4)CC3)C2=O)cc1` (centres undefined) the max dye-equivalent concentration was inconclusive: 1.2 nM. For `Cc1cc2c(cc1C)NC(c1c(C)n(C)n(-c3ccccc3)c1=O)C1=C(CC(C)(C)CC1=O)N2` (centres undefined), the max dye-equivalent concentration was inconclusive: 1.8 nM. For `CC(C)CCn1cnc2c(cnn2-c2ccc(Cl)cc2)c1=O`, the max dye-equivalent concentration was inconclusive: 2.2 nM. For `Cc1cc(C)c(C#N)c(SCS(=O)Cc2ccc(Cl)cc2)n1` (centres undefined), the max dye-equivalent concentration was inconclusive: 1.6 nM. In the case of `CCc1[nH]nc2c1C(c1cccc(OC(=O)N3CCOCC3)c1)C(C#N)=C(N)O2` (centres undefined), the max dye-equivalent concentration is reported as inconclusive: 1.3 nM. With `CCc1nc2ccccc2c(=O)n1NC(=O)c1c(O)c2ccccc2[nH]c1=O` the max dye-equivalent concentration was inconclusive: 1.4 nM. With `O=C(NCc1ccc2c(c1)OCO2)C1CCN(C(=O)Nc2ccc(Cl)cc2)CC1` the max dye-equivalent concentration was inconclusive: 1.7 nM. For `CCC(=O)Nc1ccc(S(=O)(=O)c2ccc(NC(=O)CC)cc2)cc1`, the max dye-equivalent concentration was inconclusive: 1.7 nM. In the case of `CCOC(=O)CSc1nnc(-c2ccc(OC)cc2OC)o1`, the max dye-equivalent concentration is reported as inconclusive: 2.6 nM. In the case of `Cc1ccc2cc(C(c3nnnn3C(C)(C)C)N3CCCC3)c(=O)[nH]c2c1C` (centres undefined), the max dye-equivalent concentration is reported as inconclusive: 1.1 nM. With `Cc1cc(Nc2cccc(F)c2)nc(-c2ccccc2O)n1` the max dye-equivalent concentration was inconclusive: 1.3 nM. For `O=C(O)c1cc2c([nH]c1=O)CCCC2`, the max dye-equivalent concentration was inconclusive: 1.1 nM. In the case of `COc1ccc(S(=O)(=O)Nc2ccc3c(c2)OCO3)cc1Cl`, the max dye-equivalent concentration is reported as inconclusive: 1.2 nM. With `COc1ccc(-c2c3c(=O)n(C)c(=O)n(C)c3cn2-c2ccccc2)cc1` the max dye-equivalent concentration was inconclusive: 1.6 nM. With `CCOC(=O)C(C)n1cnc2c(oc3ccccc32)c1=O` (centres undefined) the max dye-equivalent concentration was inconclusive: 1.1 nM. For `CCOC(=O)Nc1nc(-c2ccccc2)c(C)s1`, the max dye-equivalent concentration was “inactive”. In the case of `CC(C)C(c1nnnn1C1CCCC1)N1CCc2ccccc21` (centres undefined), the max dye-equivalent concentration is reported as inconclusive: 1.3 nM. In the case of `CC(=O)OC(C(=O)NCCc1ccccc1)c1cccnc1` (centres undefined), the max dye-equivalent concentration is reported as inconclusive: 1.7 nM. In the case of `Cc1cc(NC(=O)c2cccc(S(=O)(=O)N3CCOCC3)c2)c2ccccc2n1`, the max dye-equivalent concentration is reported as inconclusive: 1.4 nM. In the case of `O=C(COC(=O)Cc1ccsc1)NC1CCCCCC1`, the max dye-equivalent concentration is reported as inconclusive: 1.3 nM. For `C=CCN1C(=O)/C(=C2/Sc3ccccc3N2C)SC1=Nc1c(C)n[nH]c1C`, the max dye-equivalent concentration was inconclusive: 1.4 nM. With `COc1ccccc1-n1c(SCC(N)=O)nnc1-c1ccc(S(=O)(=O)N2CCCCC2)cc1` the max dye-equivalent concentration was inconclusive: 1.8 nM. For `O=C1CC(N(O)c2ccccc2)C(=O)N1c1cc(Cl)cc(Cl)c1` (centres undefined), the max dye-equivalent concentration was inconclusive: 1.3 nM. For `COc1ccccc1N(CCC#N)C(=O)CSc1nc(-c2ccccc2)cn1N`, the max dye-equivalent concentration was inconclusive: 1.8 nM. In the case of `CCOC(=O)c1ccc(NC(=O)Nc2cc(C)on2)cc1`, the max dye-equivalent concentration is reported as inconclusive: 1.7 nM. For `CN1CC(=O)NC1=NC(=O)c1cc(F)c(F)cc1Cl`, the max dye-equivalent concentration was inconclusive: 1.4 nM. In the case of `CC(C)Sc1nnc([C@H](C)NC(=O)OC(C)(C)C)o1`, the max dye-equivalent concentration is reported as inconclusive: 1.2 nM. For `O=C(O)c1ccccc1C(=O)N1CC=C(c2ccccc2)CC1`, the max dye-equivalent concentration was inconclusive: 1.1 nM. With `CC12CCC(C(=O)n3c1nc1ccccc13)C2(C)C` (centres undefined) the max dye-equivalent concentration was inconclusive: 1.1 nM. With `O=C(COc1ncnc2ccccc12)NCc1ccc2c(c1)OCO2` the max dye-equivalent concentration was inconclusive: 1.2 nM. In the case of `c1ccc2[nH]c(CN3CCCCCC3)nc2c1`, the max dye-equivalent concentration is reported as “inactive”. For `Cn1c(=O)[nH]c(=O)c2c1nc(NCc1ccco1)n2CCCc1ccccc1`, the max dye-equivalent concentration was inconclusive: 1.7 nM. With `COc1ccc(C(=O)Nn2cc3c(c2-c2ccccc2)c(=O)n(C)c(=O)n3C)cc1` the max dye-equivalent concentration was inconclusive: 1.2 nM. For `CCc1cccc(C)c1NC(=O)C1=C(C(=O)O)CCCC1`, the max dye-equivalent concentration was inconclusive: 1.6 nM. For `Cc1cc(C)cc(NC(=O)Cn2ncn3c(cc4ccccc43)c2=O)c1`, the max dye-equivalent concentration was inconclusive: 1.3 nM. For `CCCN(CC1CC1)C(=O)Nc1ccccc1C`, the max dye-equivalent concentration was inconclusive: 1.6 nM. In the case of `Cc1cc(C)n(-c2ccc(C(=O)OCC(=O)N(CC(C)C)C3CCS(=O)(=O)C3)cc2)n1` (centres undefined), the max dye-equivalent concentration is reported as inconclusive: 1.3 nM. With `C#CCN(C)CCCOc1ccc(Cl)cc1Cl` the max dye-equivalent concentration was inconclusive: 1.2 nM. In the case of `CCOC(=O)C1CCCN(CCC(=O)Nc2ccc(F)c(F)c2)C1` (centres undefined), the max dye-equivalent concentration is reported as inconclusive: 2.9 nM. For `COCCN1CC(O)=C(c2nc3ccccc3c(=O)[nH]2)C1=N`, the max dye-equivalent concentration was inconclusive: 1.1 nM. For `O=C(O)CN(CCN(CC(=O)O)CC(=O)O)CCN(CC(=O)O)CC(=O)O`, the max dye-equivalent concentration was inconclusive: 1.2 nM. With `CC(C)(CO)Cc1cc(C(C)(C)C)c(O)c(C(C)(C)C)c1` the max dye-equivalent concentration was inconclusive: 1.1 nM. With `O=C(CN1CCC(n2nnc3cc(F)ccc32)CC1)Nc1ccccc1N1CCOCC1` the max dye-equivalent concentration was inconclusive: 1.6 nM. With `Cc1ccc(S(=O)(=O)c2cc3c(=O)n4cc(C)ccc4nc3n(CC3CCCO3)c2=N)cc1` (centres undefined) the max dye-equivalent concentration was inconclusive: 1.5 nM. For `Cc1ccc2cc(CN(CC3CCCO3)S(=O)(=O)c3cccc4nsnc34)c(=O)[nH]c2c1` (centres undefined), the max dye-equivalent concentration was inconclusive: 1.1 nM. With `CC1(C)CC(CCNC(=O)c2ccc(-n3cnnn3)cc2)CC(C)(C)N1` the max dye-equivalent concentration was inconclusive: 1.3 nM. For `CCn1nc(C(=O)Nc2ccc(S(=O)(=O)Nc3nccs3)cc2)c2ccccc2c1=O`, the max dye-equivalent concentration was inconclusive: 1.6 nM. With `COc1ccc(C(=O)N2CC3(C)CC2CC(C)(C)C3)cc1` (centres undefined) the max dye-equivalent concentration was inconclusive: 1.4 nM. With `Cc1cc(-n2c(C)cc(C(=O)CN3C(=O)NC4(CCCCC4C)C3=O)c2C)no1` (centres undefined) the max dye-equivalent concentration was inconclusive: 1.1 nM.
